The values below come from article PMC11281990.

Results are given in words; binding and its absence hold for the method and conditions named. Binding seen in cells or lysates may run through a third protein.

The target in this assay is T1, Z-DNA/RNA binding protein 1 (rat (endogenous in Sprague Dawley hippocampal neurons)) (UniProt Q8VDA5).
T1 sequence: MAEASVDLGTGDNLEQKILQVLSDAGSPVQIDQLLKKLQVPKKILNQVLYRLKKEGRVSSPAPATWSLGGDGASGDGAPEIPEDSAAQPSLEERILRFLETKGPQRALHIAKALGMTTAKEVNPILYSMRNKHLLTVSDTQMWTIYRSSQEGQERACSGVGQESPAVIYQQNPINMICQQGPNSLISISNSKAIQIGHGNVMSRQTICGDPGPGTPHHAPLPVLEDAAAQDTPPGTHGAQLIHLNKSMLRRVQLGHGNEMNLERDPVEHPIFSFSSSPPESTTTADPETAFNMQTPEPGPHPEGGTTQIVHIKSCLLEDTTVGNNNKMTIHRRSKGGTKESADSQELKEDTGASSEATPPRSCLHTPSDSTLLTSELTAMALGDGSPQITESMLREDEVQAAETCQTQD
In words: co-IP; lysate of rat hippocampal neurons primed with sevoflurane (3%, 6 h); precipitated with 1 ug anti-ZBP1 antibody and protein A/G PLUS-Agarose overnight at 4 C, washed five times with M2 buffer; immunoblot for ADAR1-P150, ADAR1-P110, ADAR2, ADAR3. (A western blot detects proteins with antibodies after separation by electrophoresis.)

Take “Adenosine deaminase acting on RNA-1, P110 isoform”: the binding entry is “no binding”.
